Experimental data taken from PubChem BioAssay AID504834 (National Center for Advancing Translational Sciences (NCATS), 2011).
About 22,000 (6.9%) of roughly 320,000 compounds were called active. The shares of active, inactive and inconclusive entries below differ from those in the screen. Calls follow the shape of the dose curve; as a rule, active = well fitted inhibition curve with a large enough effect; inconclusive = small, poorly fitted or top-dose-only effect, or another doubt; inactive = no such curve, though single readings can be large or run the other way. Potencies of inconclusive entries are doubtful fits and often do not repeat.
Potency is read from the fitted curve at half-maximal effect.

Assay: Primary qHTS for delayed death inhibitors of the malarial parasite plastid, 96 hour incubation
Conditions: P. falciparum luciferase reporter growth; series mostly up to 28.7 µM
Method in brief: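 Erythrocytes infected with luciferase-expressing P. falciparum were dispensed at 2% hematocrit and 0.05% parasitemia (final), then incubated with compounds 96 hours at 37 C in 5% CO2. Luminescence after detection reagent addition reported growth.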
With `O=C(CSc1nnc(Cc2cc(=O)[nH]c(=O)[nH]2)n1-c1ccc(F)cc1)N1CCCCC1` the Potency was active: 7.38 µM. With `CN(Cc1ccccc1)S(=O)(=O)c1ccc2c(c1)NC(=O)CC(=O)N2` the Potency was active: 10.4 µM. In the case of `COc1ccc2c(c1)CC/C(=C/c1cc(OC)c(OC)c(OC)c1)C2=O`, the Potency is reported as active: 14.7 µM. For `S=C(Nc1cccnc1)NC1CC2CCC1C2` (configuration not stated), the Potency was inconclusive: 14.7 µM [inhibitor, single point]. For `COCCN1C(=O)C(CC(=O)Nc2ccc(C(=O)O)cc2)SC1=Nc1ccccc1` (configuration not stated), the Potency was “inactive”. In the case of `NS(=O)(=O)c1ccc(CCNC(=O)c2ccc(CS(=O)(=O)c3ccc(Br)cc3)o2)cc1`, the Potency is reported as inconclusive: 1.85 µM [inhibitor, full curve]. With `O=[N+]([O-])c1ccc(N2CCN(c3ccccn3)CC2)c(Cl)c1` the Potency was inconclusive: 18.5 µM [inhibitor, single point]. For `O=C(Nc1cccc(S(=O)(=O)N2CCCCC2)c1)c1cc2ccccc2o1`, the Potency was “inactive”. With `CC1CN(C2=NC(=O)/C(=C/c3ccncc3)S2)CC(C)O1` (configuration not stated) the Potency was inconclusive: 4.65 µM [inhibitor, partial curve]. For `CCOc1ccc(C(=O)C2CCN(C(=O)c3ccc([N+](=O)[O-])cc3)CC2)cc1`, the Potency was inconclusive: 20.8 µM [inhibitor, single point]. For `COc1ccc(CCn2c(=S)[nH]c3ccc(N4CCOCC4)cc3c2=O)cc1OC`, the Potency was inconclusive: 0.465 µM [inhibitor, full curve, poor fit]. For `Cc1ccc(N=C2SCCCN2C(=O)c2cccc(N3C(=O)CCC3=O)c2)cc1Cl`, the Potency was “inactive”. With `CC1CCN(c2ccc(-c3cccc(NC(=O)c4ccco4)c3)nn2)CC1` the Potency was “inactive”. In the case of `c1ccc(C2=NNC(=NCc3ccc4c(c3)OCO4)SC2)cc1`, the Potency is reported as inconclusive: 18.5 µM [inhibitor, single point]. For `CC(Cc1ccccc1Sc1ccccc1O)N(C)C` (configuration not stated), the Potency was active: 3.7 µM. With `COC(=O)C1=C(c2ccc(-c3ccccc3)c(F)c2)C[C@@H]2CC[C@H]1N2C(=O)NCCOc1ccccc1` the Potency was inconclusive: 2.62 µM [inhibitor, full curve, poor fit]. For `COc1ccccc1CNS(=O)(=O)c1ccc(Br)s1`, the Potency was “inactive”. With `COCCCNC(=O)c1ccccc1N(Cc1ccccc1)S(=O)(=O)c1ccc(OC)cc1` the Potency was inconclusive: 11.7 µM [inhibitor, single point]. With `CCc1cccc2c1NC1(CCCC1)CC2C` (configuration not stated) the Potency was inconclusive: 1.17 µM [inhibitor, partial curve, poor fit]. In the case of `CCOC(=O)C1CCCN(C(=O)C2CCN(S(=O)(=O)N3CCC4(CC3)OCCO4)CC2)C1` (configuration not stated), the Potency is reported as inconclusive: 13.1 µM [inhibitor, single point]. With `CC(SCc1ccccc1)C(=O)Nc1ccc(F)cc1` (configuration not stated) the Potency was inconclusive: 10.4 µM [inhibitor, single point]. In the case of `COC(=O)c1[nH]c2ccc(Br)cc2c1NC(=O)C(C)N1CCN(C2CCCCC2)CC1` (configuration not stated), the Potency is reported as active: 2.08 µM. With `COc1ccc(NC(=O)CN2CCN(S(=O)(=O)c3cccs3)CC2)cc1Cl` the Potency was active: 11.7 µM. With `CC(OC(=O)c1ccc(Cl)cc1)C(=O)NCc1ccc2c(c1)OCO2` (configuration not stated) the Potency was inconclusive: 3.7 µM [inhibitor, partial curve, poor fit]. For `CCn1cc(Br)c(C(=O)Nc2ccc(Cl)cc2Cl)n1`, the Potency was “inactive”. With `Cc1c(Cl)c([N+](=O)[O-])nn1CCCC(=O)Nc1ccc(Cl)cc1Cl` the Potency was active: 11.7 µM. For `COc1cccc(CN2C(=O)C(C)N(C(=O)c3c(F)cccc3F)c3ccccc32)c1` (configuration not stated), the Potency was active: 6.57 µM. In the case of `O=C(c1ccc(Cn2cc(Cl)cn2)cc1)N1CCN(c2ccccc2)CC1`, the Potency is reported as active: 7.38 µM. With `S=c1nc(NCCc2ccccc2Cl)c2ccccc2[nH]1` the Potency was “inactive”. With `O=C(NNc1c(Cl)cc(Cl)cc1Cl)c1cccc([N+](=O)[O-])c1` the Potency was inconclusive: 5.86 µM [inhibitor, partial curve, poor fit]. For `COc1ccc(OCCSc2nc(N)cc(=O)[nH]2)cc1`, the Potency was “inactive”. In the case of `Cc1cccc(CS(=O)(=O)Cc2ccc(C(=O)NC3CCCCC3)o2)c1`, the Potency is reported as “inactive”. In the case of `CN(C)S(=O)(=O)c1cccc(NC(=O)c2cc(-c3cccs3)nn2-c2cccc(Cl)c2)c1`, the Potency is reported as active: 14.7 µM. With `CCOC(=O)N1CCC(N2C(=O)c3ccccc3C2Nc2cc(Cl)c(OC)cc2OC)CC1` (configuration not stated) the Potency was inconclusive: 11.7 µM [inhibitor, single point]. With `Cn1c(=O)c2c([nH]c(OCc3ccc(Cl)cc3Cl)[n+]2Cc2ccc(F)cc2)n(C)c1=O` the Potency was inconclusive: 8.28 µM [inhibitor, partial curve]. For `Cc1cc(C)c(NC(=O)CC(C)(C)C)c(Cl)c1`, the Potency was inconclusive: 0.0738 µM [inhibitor, full curve, poor fit]. In the case of `NC(=S)N=Nc1c(O)n(CCCl)c2ccccc12`, the Potency is reported as inconclusive: 20.8 µM [inhibitor, single point]. In the case of `NC(=O)c1ccc(C(F)(F)F)n(Cc2ccc(Cl)cc2)c1=O`, the Potency is reported as inconclusive: 9.28 µM [inhibitor, partial curve, poor fit]. With `O=C(O)CCCCCN1C(=O)/C(=C\c2ccncc2)SC1=S` the Potency was “inactive”. For `Cc1n[nH]c(=S)n1-c1ccccc1`, the Potency was inconclusive: 18.5 µM [inhibitor, partial curve, poor fit]. For `O=C(CCl)c1cc2c3c(c1)CC(=O)N3CCC2`, the Potency was inconclusive: 11.7 µM [inhibitor, single point]. With `C=C1CCN([C@@H](C)C(=O)NCCCCCC)S(=O)(=O)c2ccccc21` the Potency was “inactive”. In the case of `COc1cc(/C=N/Nc2cccc(C)c2)ccc1OC(=O)c1cccs1`, the Potency is reported as “inactive”. For `S=c1[nH]nc(C2CCCCC2)n1/N=C/C(Cl)=C\c1ccccc1`, the Potency was inconclusive: 18.5 µM [inhibitor, single point]. For `CN(C)C(=O)CSc1nc(SCC(=O)N(C)C)n(-c2ccccc2)n1`, the Potency was “inactive”. With `O=C(CSc1nnc(CNc2ccc(Cl)cc2)o1)Nc1nc2c(s1)CCCC2` the Potency was inconclusive: 13.1 µM [inhibitor, single point]. With `CC1=CN2C(=N)/C(=C/c3ccc(Sc4ccc(Cl)cc4)o3)C(=O)N=C2S1` the Potency was inconclusive: 2.94 µM [inhibitor, single point]. For `CCc1ccc(C2NC(=S)NC3=C2C(=O)CCC3)cc1` (configuration not stated), the Potency was inconclusive: 14.7 µM [inhibitor, partial curve, poor fit]. With `O=S(=O)(c1cnc(Cl)c(Cl)c1)N1CCN(c2ncccn2)CC1` the Potency was inconclusive: 4.15 µM [inhibitor, partial curve, poor fit]. In the case of `Cc1cc(NC2CCCCC2)n2c(n1)nc1ccccc12`, the Potency is reported as “inactive”. For `COc1ccc(/C=N/NC(=O)c2ccc(CSc3nc(C)cc(C)n3)cc2)cc1O`, the Potency was inconclusive: 7.38 µM [inhibitor, single point]. For `CC(C)(C)NS(=O)(=O)c1ccc(NC(=S)NC(=O)C2CCC2)cc1`, the Potency was inconclusive: 13.1 µM [inhibitor, single point]. In the case of `O=c1cc(N2CCN(c3ccccc3)CC2)[nH]c(=O)n1C1CCCCC1`, the Potency is reported as inconclusive: 13.1 µM [inhibitor, partial curve, poor fit]. In the case of `CC(=O)Nc1cccc(NC(=O)CN2c3cccc4cccc(c34)S2(=O)=O)c1`, the Potency is reported as inconclusive: 18.5 µM [inhibitor, single point]. In the case of `Cc1ccc(OCC(=O)N2CCN(C3=NS(=O)(=O)c4ccccc43)CC2)cc1`, the Potency is reported as inconclusive: 7.38 µM [inhibitor, partial curve]. For `COC(=O)c1ccccc1NC(=O)Cc1nc(-c2ccccc2)sc1-c1ccc(C)cc1`, the Potency was inconclusive: 9.28 µM [inhibitor, single point]. In the case of `Cc1cc(C)c(NC(=O)Cn2nnc(C(=O)NCc3ccc4c(c3)OCO4)c2N)c(C)c1`, the Potency is reported as active: 14.7 µM. In the case of `CCOC(=O)CSc1nc(Nc2ccc3c(c2)OCO3)c2ccccc2n1`, the Potency is reported as active: 8.28 µM. In the case of `C/C(=N/Nc1ccnc2cc(Cl)ccc12)c1ccc(O)cc1`, the Potency is reported as active: 0.294 µM. In the case of `CC(C)CCNC(=O)[C@H](CSCc1ccccc1)N1Cc2ccccc2C1=O`, the Potency is reported as inconclusive: 8.28 µM [inhibitor, partial curve]. For `CN1Cc2c(N3CCOCC3)nc(SCc3ccccc3)c(C#N)c2CC1(C)C`, the Potency was “inactive”. For `c1ccc(CCC2CCCCN2Cc2nc(C3CC3)no2)cc1` (configuration not stated), the Potency was inconclusive: 13.1 µM [inhibitor, single point]. For `COc1ccc(N2CC(C(=O)Nc3cccc(OC(C)C)c3)CC2=O)cc1` (configuration not stated), the Potency was inconclusive: 9.28 µM [inhibitor, single point]. With `N=c1c2c(n(Cc3ccc([N+](=O)[O-])cc3)c3c1CCC3)CCCC2` the Potency was active: 10.4 µM. In the case of `Cc1ccc(C)c(OCC(=O)Nc2ccc(N3CCOCC3)cc2)c1`, the Potency is reported as inconclusive: 18.5 µM [inhibitor, single point]. With `CC1=NN(C(=O)CSCc2ccccc2)C(O)(c2ccc(Cl)cc2)C1` (configuration not stated) the Potency was active: 11.7 µM. For `CC1CCCCC1NC(=O)C1CCC(CNS(=O)(=O)c2ccccc2)CC1` (configuration not stated), the Potency was inconclusive: 5.22 µM [inhibitor, partial curve, poor fit]. With `CCC(CCC(=O)Nc1cccc([N+](=O)[O-])c1)C(=O)O` (configuration not stated) the Potency was “inactive”. With `CN1Cc2c(N3CCOCC3)nc3sc(C#N)c(N)c3c2CC1(C)C` the Potency was inconclusive: 2.62 µM [inhibitor, full curve]. With `Cc1ccccc1-c1nc(CN2CCC(C(=O)NC3CC3)CC2)c(C)o1` the Potency was “inactive”. With `Nc1ccc(-c2nc3ncccc3o2)cc1` the Potency was inconclusive: 10.4 µM [inhibitor, single point]. In the case of `COc1cc(/C=C/C(=O)OCC(=O)NC(=O)NC(C)(C)C)ccc1O`, the Potency is reported as inconclusive: 11.7 µM [inhibitor, single point].
